# From PubChem BioAssay AID687031 (Broad Institute, 2013)
# In all, about 1,400 compounds went through this assay and about 50 (4%) were called active.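 The calls were made as follows: active = fitted curve reaches 30% CPE protection at or below the top valid dose, with every test run called active; inconclusive = test runs disagree, some active and some not; inactive = every test run inactive, including effects in the wrong direction.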 The list shows a part of the results. Potency and affinity values are given separately.
# Assay: antiviral rescue of DENV2-infected BHK-21 cells – cell-based, ATP luminescence, cherry-pick, dose response (AID 687031);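 also: 0% = infected DMSO wells and 100% = uninfected cell wells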
# Conditions: BHK-21 DENV2 CPE protection, 5 d; at 19.5 µM (top of the series) unless noted
row,Compound,CPE protection (higher = active)
1,Cc1ccc(C(=O)Nc2ccc(N3CCN(C)CC3)cc2)cc1C,inactive: -22.4%
2,C[C@@H]1CN([C@H](C)CO)C(=O)Cc2cc(NC(=O)CCCCCC(=O)Nc3ccccc3N)ccc2O[C@@H]1CN(C)Cc1ccc(Cl)c(Cl)c1,inactive: -2.74%
3,CCOc1cc(/C=N/NC(=O)C(=O)NC2CC2)cc(Br)c1O,inactive: -15.5%
4,COc1cccc(CC(=O)OCC(=O)Nc2nnc(-c3ccccc3)o2)c1,inactive: -26.5%
5,CCN(CC)S(=O)(=O)c1ccc(C)c(NC(=O)COc2ccc(Br)cc2Cl)c1,inactive: 14.4%
6,NC(=O)C1CCN(CC(O)COc2ccc(-c3ccccc3)cc2)CC1 (configuration not stated),inactive: -14%
7,O=C(c1ccc2nccnc2c1)N1CCN(c2ccccc2)CC1,inactive: -31%
8,COc1ccc(S(=O)(=O)Nc2ccc3c(c2)C(=O)N([C@@H](C)CO)C[C@H](C)[C@H](CN(C)Cc2ccncc2)OCCCC[C@H](C)O3)cc1,inactive: 40.1%
9,Cc1ccccc1C1=NC(C(F)(F)F)(C(F)(F)F)c2c(n(-c3ccc(F)cc3)c(=O)[nH]c2=O)N1,inactive: 11.1%
10,COc1ccc(C2NC(=O)NC(C)=C2C(=O)Nc2cccc(C)c2C)cc1 (configuration not stated),inactive: -19.3%
11,O=C1NC[C@H](Cc2ccccc2)N(CC2CCN(CCCCc3ccccc3)CC2)C1=O,inactive: 9.67%
12,O=C(NC1CC1)c1ccc(NC(=O)C2CCCC2)cc1,inactive: 10.5%
13,CC(C)c1ccc(NC(=O)[C@H](NC(=O)[C@@H]2Cc3ccccc3CN2)c2ccccc2)cc1,inactive: -3.59%
14,COc1ccc(C(CCN2CCOCC2)c2c(OC)cc(OC)c3c(C)cc(=O)oc23)cc1 (configuration not stated),inactive: 27.1%
15,CCOC(=O)C1=CN(Cc2cccc(Br)c2)S(=O)(=O)N(C)C1C (configuration not stated),inactive: -16.8%
16,CCS(=O)(=O)Nc1ccc(C(=O)NCCSc2ccccc2)cc1,inactive: -3.93%
17,CC1CC(C)CN(C(=O)COC(=O)c2nccnc2N)C1 (configuration not stated),inactive: 8.89%
18,COc1ccc(C(=O)NCCOc2cccc(Oc3ccccc3)c2)cc1OC,inactive: -3.52%
19,CCOc1ccc(/C=N/n2nnnc2N)cc1OCC,inactive: -4.48%
20,O=C(NCc1ccncc1)c1cccc(NS(=O)(=O)c2ccc(F)c(F)c2)c1,inactive: -16.2%
21,NC(c1csc(NC(=O)Nc2cccc(Cl)c2)n1)C1CCCCC1 (configuration not stated),inactive: -2.28%

row,Compound,CPE protection (higher = active)
1,CNC[C@@H]1OCCCC[C@H](C)Oc2ccc(NS(=O)(=O)c3c(C)noc3C)cc2C(=O)N([C@@H](C)CO)C[C@@H]1C,inactive: 4.03%
2,CCCC/C=C/c1cccc2nncn12,inactive: -9.92%
3,COc1ccccc1NC(=O)CN1CCOCC1,inactive: 14.9%
4,CO[C@@H]1CN(C)C(=O)c2ccc(NC(C)=O)cc2OC[C@@H](C)N(S(C)(=O)=O)C[C@H]1C,inactive: -3.94%
5,O=C(NCCN1CCCC1)[C@H]1N[C@H]2c3ccc(-c4ccccc4)c(=O)n3C[C@H]2[C@@H]1CO,inactive: 4.15%
6,CCCN1Cc2cccc(C(=O)Nc3ccc4c(c3)OCCO4)c2C1=O,inactive: -8.78%
7,COc1ccccc1N1CCN(C(=O)c2cc(S(=O)(=O)N3CCCCC3)ccc2C)CC1,inactive: -12.5%
8,CCOc1ccc(NC(=O)CN(C)C(=O)c2ccccc2OCc2c(C)noc2C)cc1OCC,inactive: 17.7%
9,CCOC(=O)[C@]12CCCC=C1N(Cc1ccccc1)C(=O)[C@H](CC(=O)NCc1cccs1)C2,inactive: -0.078% [at 10 µM]
10,Oc1ccc(Cl)cc1CNCc1ccc(F)cc1,inactive: 31.5%
11,COc1ccc2c3c([nH]c2c1)[C@@H](CO)N(C(=O)C1CCOCC1)CC31CN(C)C1,inactive: 16.4%
12,COc1ccc(OC)c(NC(=O)NNS(=O)(=O)c2ccc(C)cc2C)c1,inactive: -12.8%
13,C[C@H]1CCCCO[C@H](CN(C)C(=O)Nc2ccc(C(F)(F)F)cc2)[C@@H](C)CN([C@@H](C)CO)C(=O)c2cc(NC(=O)C3CCCCC3)ccc2O1,inactive: -24.3%
14,CC(=O)NC(c1cccc(F)c1)c1nc(-c2ccc(N(C)C)cc2)cs1 (configuration not stated),inactive: 9.42%
15,Cc1c(C)c2cc(Cl)c(OCC(=O)NCCCN3CCCC3=O)cc2oc1=O,inactive: 30.8%
16,CC(C)Cc1ccc(C(C)C(N)=NCCc2ccccc2)cc1 (configuration not stated),inactive: 21.7%
17,COc1ccc(N(C(=O)c2cccnc2)S(=O)(=O)c2ccc(OC)c(OC)c2)cc1,inactive: -13.9%
18,CC(C)C(NS(=O)(=O)c1ccc2c(c1)C(C)(C)C(=O)N2C)C(=O)NCc1ccccc1Cl (configuration not stated),inactive: -10.8%
19,COc1ccc(OC)c(S(=O)(=O)N2CCN(c3c(C)cccc3C)CC2)c1,inactive: -28.2%
20,CCCCNC(=O)C[C@@H]1C[C@@]2(C(=O)OC)CCCCC=C2N(CCC2=CCCCC2)C1=O,inactive: -16.8%
21,C=CCC(NC(=O)c1ccc(C#N)cc1)C(=O)NCCC (configuration not stated),inactive: -14%

# Given bar-delimited: part of the list above.
row | Compound | CPE protection (higher = active)
7 | COc1ccccc1N1CCN(C(=O)c2cc(S(=O)(=O)N3CCCCC3)ccc2C)CC1 | inactive: -12.5%
15 | Cc1c(C)c2cc(Cl)c(OCC(=O)NCCCN3CCCC3=O)cc2oc1=O | inactive: 30.8%
16 | CC(C)Cc1ccc(C(C)C(N)=NCCc2ccccc2)cc1 (configuration not stated) | inactive: 21.7%
17 | COc1ccc(N(C(=O)c2cccnc2)S(=O)(=O)c2ccc(OC)c(OC)c2)cc1 | inactive: -13.9%
19 | COc1ccc(OC)c(S(=O)(=O)N2CCN(c3c(C)cccc3C)CC2)c1 | inactive: -28.2%
21 | C=CCC(NC(=O)c1ccc(C#N)cc1)C(=O)NCCC (configuration not stated) | inactive: -14%

# Further structures follow:

row,Compound,CPE protection (higher = active)
1,C[C@]1(C(=O)NCCc2c[nH]c3ccccc23)C=C[C@@H](Cc2ccccc2)N1C(=O)c1ccccc1,inactive: -14.9%
2,CCC(c1nnnn1-c1c(C)cccc1C)N1CCN(C/C=C/c2ccccc2)CC1 (configuration not stated),inactive: -27%
3,COc1ccc(C(=O)N2CCNC(=O)C2CC(=O)Nc2cccc(Cl)c2Cl)cc1 (configuration not stated),inactive: 7.23%
4,CN(C)CC(=O)Nc1ccc2c(c1)[C@H]1C[C@H](CC(=O)NC3CCCCC3)O[C@@H](CO)[C@H]1O2,inactive: 0.976%
5,COc1cccc(S(=O)(=O)Nc2ccc3c(c2)C(=O)N(C)C[C@H](OC)[C@H](C)CN[C@@H](C)CO3)c1,inactive: 20.5%
6,CC#CCN1C(=O)N[C@@H](c2ccccc2)C(C(=O)OC)=C1C,inactive: -2.29%
7,Cc1ccc(NCC(=O)N/N=C/c2cccc(Br)c2)cc1,inactive: 7.97%
8,Cc1ccc(NC(=O)C2(c3cccs3)CCOCC2)cc1C,inactive: 16.6%
9,O=C(NC1CCCC1)c1nc(-c2c(F)cccc2F)oc1-c1ccccc1,inactive: -27.9%
10,CCc1nnc(N2C(=O)c3ccccc3C2(O)c2ccccc2)s1 (configuration not stated),inactive: 12.7%
11,O=C(NC1CCCCC1)[C@@H]1[C@@H](CO)[C@@H]2Cn3c(cccc3=O)[C@H]1N2Cc1cccnc1,inactive: 7.21%
12,COc1ccc(C(=O)N2CCC2(C)C(=O)O)cc1F (configuration not stated),inactive: 3.96%
13,c1ccc(COCCCn2cc(-c3ccccc3)nn2)cc1,inactive: -2.66%
14,CN(C)S(=O)(=O)c1cccc(C(=O)Nc2ccccc2C(=O)NC2CC2)c1,inactive: 20.9%
15,Cc1ccccc1OCC(=O)OCC(=O)NCCNC(=O)COC(=O)COc1ccccc1C,inactive: 7.36%
16,COc1ccccc1N1CCN(S(=O)(=O)CCNC(=O)CCc2ccccc2)CC1,inactive: 5.74%
17,CCN(C)C1CN(Cc2cn(Cc3ccccc3)nn2)S(=O)(=O)C1 (configuration not stated),inactive: 4.79%
18,CCOC(=O)N1CCC(NCCNC(=O)c2ccc(F)c(F)c2)CC1,inactive: -26.1%
19,CCCN=C1N(CC)C[C@@H]2[C@@H]3C(=O)N(C)C(=O)[C@@H]3[C@](CC)(C(=O)OC)N12,inactive: -8.72%
20,C[C@H](CO)N1C[C@H](C)[C@H](CN(C)C(=O)Nc2cccc3ccccc23)OCCCC[C@H](C)Oc2ccc(NS(=O)(=O)c3cn(C)cn3)cc2C1=O,inactive: 27.9%
21,COC(=O)c1ccc2nc(C3CCCCC3)c(Cc3ccccc3OC)n2c1,inactive: -7.16%

row,Compound,CPE protection (higher = active)
1,COc1cc(-c2cnc3c(NC(C)=O)cc(-c4ccccc4CN(C)C)cn23)cc(OC)c1OC,inactive: -14.2%
2,CCn1c2ccccc2c2cc(NC(=O)COC(=O)c3cc(OC)c(OC)cc3OC)ccc21,inactive: 7.07%
3,O=C(NCCCN1CCOCC1)C1CCC(=O)N1CCc1ccccc1 (configuration not stated),inactive: 2.19%
4,CN(C)CCCNC(=O)OC1CC2CC1[C@H]1CCCCN1C2=O (some centres not stated),inactive: -6.8%
5,O=C(O)c1ccccc1C(=O)NCc1c(Cl)cccc1Sc1ccc(Cl)cc1,inactive: -0.361%
6,O=C(O)c1cc(=O)c2c(OCC(O)COc3cccc4oc(C(=O)O)cc(=O)c34)cccc2o1,inactive: 2.33%
7,NCc1csc(NC(=O)Nc2cccc(Cl)c2)n1,inactive: 4.73%
8,CCCN1CCC(=O)N([C@H](CSc2ccccc2)Cc2ccccc2)CC1,inactive: 2.27%
9,CC(Oc1ccc2ccc(=O)oc2c1)C(=O)NC(Cc1c[nH]c2ccc(O)cc12)C(=O)O (configuration not stated),inactive: 1.32%
10,COc1ccc2ccccc2c1/C=N/NC(=O)c1ccccc1F,inactive: 3.87%
11,COc1cc(CCCN2CCNC[C@@H]2c2ccccc2)cc(OC)c1OC,inactive: 12.2%
12,COc1ccccc1CNC(=O)CCCN1C(=O)NC2(CCCC2)C1=O,inactive: 15.5%
13,Cc1sc2ncnc(N3CCC(C(=O)Nc4ccc(Cl)cc4Cl)CC3)c2c1C,inactive: -2.81%
14,Cc1cc(OCC(=O)NC(Cc2c[nH]c3ccc(O)cc23)C(=O)O)c2c(C)c(C)c(=O)oc2c1 (configuration not stated),inactive: 9.36%
15,O=S(=O)(c1ccc(=S)[nH]c1)N1CCN(Cc2ccccc2)CC1,inactive: 17.7%
16,Cc1noc(C)c1S(=O)(=O)N(C)C[C@H]1OCCCC[C@@H](C)Oc2ccc(NC(=O)Nc3ccc4c(c3)OCO4)cc2C(=O)N([C@@H](C)CO)C[C@H]1C,inactive: 25.4%
17,Cc1ccc(NS(=O)(=O)c2ccc(C(=O)NCCCN3CCCC3=O)cc2)cc1,inactive: 0.056%
18,CC(=O)N1CC2(C1)[C@H](c1ccc(-c3ccc(C#N)cc3)cc1)[C@@H](CO)N2C(=O)C1CC1,inactive: 20.5% [at 21 µM]
19,C[C@@]12C(=O)N(CCc3c[nH]c4ccccc34)CC(=O)N1[C@H]1c3ccccc3OC[C@@H]1[C@@H]2c1ccccc1,inactive: -6.92%
